These are yes or no findings as the source states them, for the method shown. In cells and extracts the contact can be indirect. Some results given as binding are weak or reduced against the parent protein; the word gives no strength. For part of these data: Sequences can lack the tags named with a protein.
Key:
Assay in all cases: co-IP; FLAG-TPD52, FLAG-TPD53 or FLAG-TPD54 coexpressed in HeLa with GFP-FKBP constructs; lysis in 10 mM Tris pH 7.5, 150 mM NaCl, 0.5 mM EDTA, 1% Triton X-100; anti-FLAG M2 magnetic beads 2 h at 4°C; Western blot with anti-GFP
FLAG-TPD53 (human) = target: T1, FLAG-TPD53 (human) (UniProt Q16890)
T1 sequence: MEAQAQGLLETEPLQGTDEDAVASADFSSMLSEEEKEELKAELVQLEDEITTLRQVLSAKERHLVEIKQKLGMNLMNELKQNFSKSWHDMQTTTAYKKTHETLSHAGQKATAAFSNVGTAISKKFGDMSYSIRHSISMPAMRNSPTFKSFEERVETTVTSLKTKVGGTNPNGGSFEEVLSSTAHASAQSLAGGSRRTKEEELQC

Protein sequences, listed by entry. Tags and fused reporters are not part of them. Lines headed by an entry give the natural chain unless they say otherwise; changes in a name come on top.
UniProt O43399: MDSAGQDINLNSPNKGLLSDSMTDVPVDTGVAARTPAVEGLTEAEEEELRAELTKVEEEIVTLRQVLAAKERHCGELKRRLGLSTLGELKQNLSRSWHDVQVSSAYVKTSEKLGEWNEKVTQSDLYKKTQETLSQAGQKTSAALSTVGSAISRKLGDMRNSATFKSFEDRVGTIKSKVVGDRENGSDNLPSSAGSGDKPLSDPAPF

FLAG-TPD54 (human) = FLAG-TPD54 (human) (UniProt O43399)
FLAG-TPD52 (human) = target: T2, FLAG-TPD52 (human) (UniProt P55327)
T2 sequence: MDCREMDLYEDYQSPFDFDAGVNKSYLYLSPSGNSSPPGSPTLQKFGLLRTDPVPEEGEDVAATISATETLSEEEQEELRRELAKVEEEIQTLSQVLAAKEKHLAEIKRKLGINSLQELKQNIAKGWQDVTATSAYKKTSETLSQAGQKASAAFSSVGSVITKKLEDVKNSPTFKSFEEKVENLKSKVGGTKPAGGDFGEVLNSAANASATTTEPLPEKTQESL

Measured: binding

GFP-FKBP-TPD54 (from UniProt O43399-1 1-206)
binds: all assays above
